This is an account of results in the supplement of paper PMC9744312.

Where a name gives a salt, the structure may show the parent alone. This is one part of the list. The data scatter; read single values as rough.

For this assay, the system named is Peyronie's disease tunica albuginea primary fibroblasts. The experiment in a line: inhibition of TGF-beta1-induced alpha-SMA expression (myofibroblast transformation), relative to TGF-beta1-only and untreated controls; higher = stronger inhibition of myofibroblast transformation. As to conditions: 10 µM; TGF-beta1 10 ng/mL; 72 h.
With `COC(=O)C1=C(C#N)NC(C)=C(C(=O)OC(C)C)C1c1cccc([N+](=O)[O-])c1` (configuration not stated) [Nilvadipine], the “inhibition of TGF-beta1-induced alpha-SMA expression” value (from here on “inhibition”) stood at 14.6%.
`C[C@H](CCC(=O)O)[C@H]1CC[C@H]2[C@@H]3[C@@H](O)C[C@@H]4C[C@H](O)CC[C@]4(C)[C@H]3CC[C@]12C` [Ursodiol]: the “inhibition” value was determined as 29.2%.
For `CC[C@H](C)[C@H](NC(=O)[C@H](Cc1ccc(O)cc1)NC(=O)[C@@H](NC(=O)[C@H](CCCN=C(N)N)NC(=O)[C@@H](N)CC(=O)O)C(C)C)C(=O)N[C@@H](Cc1cnc[nH]1)C(=O)N1CCC[C@H]1C(=O)N[C@@H](Cc1ccccc1)C(=O)O` [Angiotensin II human Acetate] the value was 12%; for `C[C@@H](O)[C@@H]1NC(=O)[C@H](CCCCN)NC(=O)[C@@H](Cc2c[nH]c3ccccc23)NC(=O)[C@H](Cc2ccccc2)NC(=O)[C@@H](NC(=O)[C@H](N)Cc2ccccc2)CSSC[C@@H](C(=O)N[C@H](CO)[C@@H](C)O)NC1=O` [Octreotide Acetate], 11.3%.
For `O=C(CCCN1CCN(c2ccccn2)CC1)c1ccc(F)cc1` [Azaperone] the value was 13.4%.
For `Nc1c2ccccc2nc2ccccc12` [9-Aminoacridine] the value was greater than 100%; for `Cc1ccc(=O)n(-c2ccccc2)c1` [Pirfenidone], -1.57%; for `CC(C)OC(=O)OCOP(=O)(CO[C@H](C)Cn1cnc2c(N)ncnc21)OCOC(=O)OC(C)C` [Tenofovir Disoproxil Fumarate], 15%.
`CC(C)(CO)C(O)C(=O)NCCC(=O)O` [Calcium D-Panthotenate]: the “inhibition” value is greater than 100%.
For `Cc1c(-c2cnccn2)ssc1=S` [Oltipraz], the “inhibition” value was determined as 16.1%.
Consider `CCN(CC)CCNC(C(=O)OCCC(C)C)c1ccccc1` (configuration not stated) [Camylofin Chlorhydrate], for which the “inhibition” value was 77.2%.
Regarding `C[C@@H]1C[C@H]2[C@@H]3CCC4=CC(=O)C=C[C@]4(C)[C@@]3(F)[C@@H](O)C[C@]2(C)[C@@]1(O)C(=O)COP(=O)(O)O` [Dexamethasone Sodium Phosphate], the “inhibition” value amounted to 82%.
Turning to `Cc1ccc(F)c(NC(=O)Nc2ccc(-c3cccc4[nH]nc(N)c34)cc2)c1` [Linifanib (ABT-869)], the “inhibition” value is 6.58%.
On to `C[C@]12CC[C@@H]3c4ccc(OC(=O)c5ccccc5)cc4CC[C@H]3[C@@H]1CC[C@@H]2O` [Estradiol Benzoate], for which the “inhibition” value is greater than 100%.
The figure for `CN1CCN(C(c2ccccc2)c2ccccc2)CC1` [Cyclizine 2HCl] is 13.4%; for `COC(=O)[C@@H]1CC2=CC(=O)CC[C@]2(C)[C@@]23O[C@@H]2C[C@@]2(C)[C@@H](CC[C@@]24CCC(=O)O4)[C@H]13` [Eplerenone] it is 16.7%.
On to `CC[C@H](CO)Nc1nc(NCc2ccccc2)c2ncn(C(C)C)c2n1` [Roscovitine (Seliciclib,CYC202)], for which the “inhibition” value was -12.3%.
